Data as given in PMC8881610.
These are yes or no findings as the source states them, for the method shown.

Chains of the proteins cited; added tags and fusions are not shown. Residues count along the entry.
UniProt P01275, residues 98-127: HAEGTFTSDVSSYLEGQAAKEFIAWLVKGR

Molecular target: T1, human GIPR, wild-type, on cells (human) (UniProt P48546)
T1 sequence: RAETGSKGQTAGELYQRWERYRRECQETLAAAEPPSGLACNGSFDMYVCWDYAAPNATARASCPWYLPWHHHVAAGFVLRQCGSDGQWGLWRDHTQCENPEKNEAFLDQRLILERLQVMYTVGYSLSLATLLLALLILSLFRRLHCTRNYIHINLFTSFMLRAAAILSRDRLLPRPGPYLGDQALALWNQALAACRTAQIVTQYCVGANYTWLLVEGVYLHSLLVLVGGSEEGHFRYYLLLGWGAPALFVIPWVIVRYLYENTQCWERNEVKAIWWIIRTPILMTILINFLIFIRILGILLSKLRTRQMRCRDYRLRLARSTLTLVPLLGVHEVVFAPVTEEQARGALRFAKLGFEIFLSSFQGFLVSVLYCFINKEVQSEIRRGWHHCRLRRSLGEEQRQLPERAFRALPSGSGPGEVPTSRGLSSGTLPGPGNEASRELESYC
Assay: radioligand binding; whole-cell competition on CHO-K1 cells transiently expressing GIPR; 125I-GIP(1-42) 30 pM and unlabeled peptide 3.57 pM to 5 μM, RT, 3 h; F-12 with 0.1% BSA or 0.1% casein, 33 mM HEPES; only the binder purified

- binding: no binding (tested: 5 μM)
Substance: glucagon-like peptide-1 GLP-1(7-36)NH2 (from UniProt P01275 98-127) (ligand)
